PubChem BioAssay AID1259425 | University of Nebraska Medical Center | 2018

- Test: 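Seek colon cancer weak points whose silencing resembles KSR1 loss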 (primary screen)
- System: HCT116 human colon cancer cells
- Reagent: siRNA pool against human genes, 50 nM siRNA
- Measurement: 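mRNA of six signature genes measured together by branched-DNA assay after 50 nM siRNA pool, blank removed, divided by geometric mean of two housekeeping genes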
- Scale: BNIP3L mRNA: higher = more BNIP3L transcript after knockdown; NDRG1 mRNA: higher = more NDRG1 transcript after knockdown
Here is one part, drawn at random, of about 14,000 reagents tested. Further read-outs or replicates are left out here. Reagent sequences are not shown. The record does not give: the time to read-out.

CCL3L1 (GeneID 6349) gave BNIP3L mRNA, set 1 = 0.0951; NDRG1 mRNA, set 1 = 0.19.
Against MAGEH1 (GeneID 28986), the entry reads BNIP3L mRNA, set 1 = 0.163; NDRG1 mRNA, set 1 = 0.222.
ZC3H10 (GeneID 84872) showed BNIP3L mRNA, set 1 = 0.127; NDRG1 mRNA, set 1 = 0.0513.
With knock-down of IHH (GeneID 3549), the screen gave BNIP3L mRNA, set 1 = 0.115; NDRG1 mRNA, set 1 = 0.153.

Look-ups from the list.
Result for ZC3H10 (GeneID 84872) under “BNIP3L mRNA, set 1”: 0.127
IHH (GeneID 3549), NDRG1 mRNA, set 1 = 0.153

The results go on.
For KLKB1 (GeneID 3818), the values are BNIP3L mRNA, set 1 = 0.114; NDRG1 mRNA, set 1 = 0.116.
Against CCDC68 (GeneID 80323) the deposit lists BNIP3L mRNA, set 1 = 0.209; NDRG1 mRNA, set 1 = 0.408.
Silencing of ZNF655 (GeneID 79027) resulted in: BNIP3L mRNA, set 1 = 0.0955; NDRG1 mRNA, set 1 = 0.191.
Depletion of RNF146 (GeneID 81847) resulted in: BNIP3L mRNA, set 1 = 0.0702; NDRG1 mRNA, set 1 = 0.163.
DTX2 (GeneID 113878) gave BNIP3L mRNA, set 1 = 0.0881; NDRG1 mRNA, set 1 = 0.0813.
After knock-down of NDUFB9 (GeneID 4715) the results were BNIP3L mRNA, set 1 = 0.103; NDRG1 mRNA, set 1 = 0.191.
Silencing of SLC71A1 (GeneID 64645) resulted in: BNIP3L mRNA, set 1 = 0.132; NDRG1 mRNA, set 1 = 0.0947.
Depletion of ZNF256 (GeneID 10172) came out at: BNIP3L mRNA, set 1 = 0.0916; NDRG1 mRNA, set 1 = 0.135.
